# PubChem BioAssay AID1347131 (National Center for Advancing Translational Sciences (NCATS), 2019)
# The whole screen tested about 410,000 compounds, of which about 2,000 (0.49%) were called active. Inconclusive results, whose numbers are uncertain, are shown with a selection of clear calls. Calls follow the shape of the full dose curve; tested in HEK293 reporter line. A potency beside an inconclusive call is a rough fit, not a confirmed value.
# Experiment: qHTS Assay for Foot and Mouth Disease Virus Antivirals: Primary Screen against the MLPCN compound library; also: nearly all actives have a fitted effect of over 55% in size
# Settings: FMDV antiviral cell-based qHTS; activity, negative = inhibition: at 57.9 µM (top of the series)
# Potency is read from the fitted curve at half-maximal effect.
SMILES,Potency,"activity, negative = inhibition"
c1ccc(-c2cc(-c3ccccc3)on2)cc1,"inconclusive: 20 µM [inhibitor, single point]",
COCCCN1C(=O)C(CC(=O)NCCc2ccccn2)CC(C(=O)N2CCCCCC2)=C1C (stereo not drawn),,inconclusive: -30.3% [inhibitor]
O=C(Nc1ccc2c(c1)OCCO2)Nc1ccc2c(c1)OCO2,"inconclusive: 15.8 µM [inhibitor, single point]",
CC(C)c1c(C(=O)N/N=C/C=C/c2ccccc2)nnn1-c1nonc1N,"inconclusive: 31.6 µM [inhibitor, partial curve, poor fit]",
Cc1ccc(C)c(NC(=O)CN(C)S(=O)(=O)c2cccc3cccnc23)c1,"inconclusive: 3.98 µM [inhibitor, partial curve]",
Cc1ccc(-n2c(C)cc(C3=NNC(=NC4CC4)SC3)c2C)cc1C,"inconclusive: 17.8 µM [inhibitor, partial curve, poor fit]",
COc1cc(CNc2ccc3[nH]c(=O)[nH]c3c2)cc(Cl)c1OCC(=O)NC(C)(C)C,"inconclusive: 10 µM [inhibitor, partial curve]",
CCn1c(COc2ccccc2C)nnc1SCC(=O)N1CCC(C)CC1,"inconclusive: 20 µM [inhibitor, single point]",
O=C(Nc1ccc(Br)cc1)c1cccc(N2C(=O)C3CCCCC3C2=O)c1 (stereo not drawn),inactive,
COc1ccc(CCNc2nc(C)nc3c2oc2ccccc23)cc1OC,"inconclusive: 17.8 µM [inhibitor, partial curve, poor fit]",
CN(CC(=O)Nc1ccc(Cl)cc1)CC(=O)Nc1sc2c(c1C(N)=O)CCC2,inactive,
O=C(c1cc2ccc3cccnc3c2[nH]1)N1CCCCC1,active: 14.1 µM,
COc1ccccc1N1CCN(C(=O)C(C)N(c2ccc(C)c(C)c2)S(C)(=O)=O)CC1 (stereo not drawn),"inconclusive: 35.5 µM [inhibitor, partial curve, poor fit]",
CCOC(=O)N1CCN(S(=O)(=O)c2ccc(F)c(C(=O)Nc3cccc(C)c3C)c2)CC1,"inconclusive: 20 µM [inhibitor, single point]",
O=C1CCc2cc(S(=O)(=O)NCCC(=O)N3CCN(c4cccc(Cl)c4)CC3)ccc2N1,"inconclusive: 15.8 µM [inhibitor, partial curve, poor fit]",
CCOc1ccccc1C1CC(=O)Nc2cc3c(cc21)OCCO3 (stereo not drawn),"inconclusive: 17.8 µM [inhibitor, partial curve, poor fit]",
Cc1ccc(CN(Cc2ccco2)C(=O)c2ccccc2Br)o1,"inconclusive: 25.1 µM [inhibitor, partial curve, poor fit]",
Cc1ccc(C(=O)NCc2ccco2)cc1S(=O)(=O)Nc1cccc(C)c1C,"inconclusive: 39.8 µM [inhibitor, single point]",
Cc1ccc(-c2cc3c(nn2)-c2ccccc2C3=O)cc1,"inconclusive: 10 µM [inhibitor, partial curve, poor fit]",
COc1ccc(CCN2C(=S)NC3CC2(C)Oc2ccc([N+](=O)[O-])cc23)cc1OC (stereo not drawn),"inconclusive: 25.1 µM [inhibitor, partial curve, poor fit]",

SMILES,Potency,"activity, negative = inhibition"
Cn1c2ccccc2c2cc(C(=O)NNC(=O)CCl)sc21,"inconclusive: 15.8 µM [inhibitor, partial curve, poor fit]",
Cc1ccc2nc(-c3ccc(NC(=O)C(C)Sc4nncs4)cc3)sc2c1 (stereo not drawn),"inconclusive: 22.4 µM [inhibitor, single point]",
CCN(CC)c1ccc(/C=C/c2ccc3ccc(OC)cc3[n+]2CC)cc1,"inconclusive: 7.94 µM [inhibitor, partial curve, poor fit]",
Cc1ccc(F)c([C@H]2C3C=CCC(c4ccccc4)C3C(=O)N2Cc2ccccc2)c1 (stereo partly drawn),inactive,
Cc1cc(-c2nnc(SCC(=O)Nc3ccc(Cl)cn3)n2N)n[nH]1,"inconclusive: 8.91 µM [inhibitor, partial curve]",
COc1cccc(CN(C)C(=O)c2sccc2-c2ccccc2)c1OC,"inconclusive: 1.26 µM [inhibitor, partial curve, poor fit]",
Cc1ccc(Cl)cc1N1CCN(C(=O)CCS(=O)(=O)c2ccc3c(c2)NC(=O)CO3)CC1,"inconclusive: 12.6 µM [inhibitor, partial curve]",
CC1CCC/C=C/C(=O)c2c(O)cc(O)cc2CC(=O)O1 (stereo not drawn),"inconclusive: 31.6 µM [inhibitor, partial curve, poor fit]",
CCOc1cccc(C(=O)Nc2nc(-c3ccc(S(=O)(=O)N4CCOCC4)cc3)cs2)c1,"inconclusive: 17.8 µM [inhibitor, partial curve, poor fit]",
O=C(CCl)N(Cc1ccccc1)c1ccccc1,"inconclusive: 22.4 µM [inhibitor, partial curve, poor fit]",
Cc1ccc(C(=O)Nc2cc3ccccc3oc2=O)cc1,"inconclusive: 2 µM [inhibitor, full curve, poor fit]",
COc1ccc(N2CCN(C(=O)c3ccc(CNc4c(N5CCOCC5)c(=O)c4=O)cc3)CC2)cc1,"inconclusive: 3.98 µM [inhibitor, partial curve]",
CC1=NN(c2ccc(Cl)cc2)C(=O)/C1=C\c1cccn1-c1ccc(S(N)(=O)=O)cc1,"inconclusive: 39.8 µM [inhibitor, partial curve, poor fit]",
Cc1ccc(NC(=O)Cc2ccc(Cl)c(Cl)c2)cc1S(=O)(=O)N(C)C,"inconclusive: 22.4 µM [inhibitor, partial curve, poor fit]",
CC(=O)/C(N=Nc1cc2c(c([N+](=O)[O-])c1C)C(C)(C)CC2(C)C)=C(\C)O,"inconclusive: 25.1 µM [inhibitor, partial curve, poor fit]",
COc1ccc(-c2nc3c4c(ncn3n2)-c2ccccc2CC42CCCC2)cc1,"inconclusive: 31.6 µM [inhibitor, partial curve, poor fit]",
COC(=O)c1ccccc1Sc1ncnc2onc(C)c12,"inconclusive: 28.2 µM [inhibitor, partial curve, poor fit]",
O=C(C1CCC1)N1CCc2cc(S(=O)(=O)NCCN3CCN(c4ccccc4F)CC3)ccc21,"inconclusive: 22.4 µM [inhibitor, partial curve, poor fit]",
O=C(Nc1ccccc1)Nc1ncc([N+](=O)[O-])s1,"inconclusive: 10 µM [inhibitor, partial curve, poor fit]",
O=C(Nc1ccncc1)c1ccc2c(c1)C(=O)N(C1CCCCC1)C2=O,"inconclusive: 14.1 µM [inhibitor, partial curve, poor fit]",

# Given bar-delimited: part of the list above.
SMILES | Potency | activity, negative = inhibition
O=C(CCl)N(Cc1ccccc1)c1ccccc1 | inconclusive: 22.4 µM [inhibitor, partial curve, poor fit] | 
Cc1ccc(C(=O)Nc2cc3ccccc3oc2=O)cc1 | inconclusive: 2 µM [inhibitor, full curve, poor fit] | 
COc1ccc(N2CCN(C(=O)c3ccc(CNc4c(N5CCOCC5)c(=O)c4=O)cc3)CC2)cc1 | inconclusive: 3.98 µM [inhibitor, partial curve] | 

# More results follow.

SMILES,Potency,"activity, negative = inhibition"
CCOC(=O)N1CCN(c2nc(-c3cccs3)cc(C(F)(F)F)n2)CC1,"inconclusive: 20 µM [inhibitor, partial curve]",
O=c1oc2ccc(Br)cc2cc1S(=O)(=O)c1ccc(F)cc1,"inconclusive: 28.2 µM [inhibitor, partial curve, poor fit]",
COc1ccc(OC)c(S(=O)(=O)N2CCC(C(=O)Nc3cccc(C(F)(F)F)c3)CC2)c1,"inconclusive: 25.1 µM [inhibitor, partial curve, poor fit]",
CN1C(=O)N(CC(=O)Nc2cccc(S(=O)(=O)N(C)c3ccccc3)c2)C(=O)C12CCCCC2,inactive,
COc1ccc(NC(=S)N2CCN(Cc3ccc(C)cc3)CC2)cc1,inactive,
O=C(CNS(=O)(=O)c1ccc(C(=O)N2CCCCC2)cc1)N1CCCCC1,"inconclusive: 5.01 µM [inhibitor, partial curve]",
Cc1cc(-c2csc(NC(=O)c3ccc(S(=O)(=O)N(C)C)cc3)n2)c(C)n1-c1ccccc1,"inconclusive: 31.6 µM [inhibitor, partial curve, poor fit]",
O=c1c(Cl)cc(Cl)nn1-c1ccccc1,"inconclusive: 35.5 µM [inhibitor, single point]",
CCOc1cc(CNCc2ccncc2)cc(Br)c1OCc1ccccc1F,inactive,
O=c1oc(/C=C/c2ccccc2)nc2ccccc12,"inconclusive: 17.8 µM [inhibitor, single point]",
O=C(Nc1ccccc1)/C(=C/c1ccccc1)c1ccccc1,inactive,
O=C(/C=C/c1cccc(Cl)c1)c1ccc([N+](=O)[O-])o1,"inconclusive: 11.2 µM [inhibitor, partial curve, poor fit]",
Cc1c(CCOC(=O)CC23CC4CC(CC(C)(C4)C2)C3)sc[n+]1CC(=O)c1ccccc1,"inconclusive: 28.2 µM [inhibitor, partial curve, poor fit]",
C#CCOCCOCCOCCNc1nc(N2CCN(C(=O)CCCCCCCCCCNC(=O)[C@H](CCCCN)n3cc(C[C@@H](C)CC)nn3)CC2)nc(N2CCN(C(=O)CCCCCCCCCCNC(=O)[C@H](CCCCN)n3cc(C[C@@H](C)CC)nn3)CC2)n1,"inconclusive: 39.8 µM [inhibitor, single point]",
Cn1nc(C(=O)OCC(=O)Nc2ccccc2OC(F)F)c2ccccc2c1=O,"inconclusive: 22.4 µM [inhibitor, partial curve, poor fit]",
CN(C(=O)OC(C)(C)C)c1ccc(-c2nc3ccccc3s2)cc1,inactive,
O=C(Nc1cccc(NC(=O)N2CCN(c3ccccc3)CC2)c1)N1CCN(c2ccccc2)CC1,"inconclusive: 25.1 µM [inhibitor, partial curve, poor fit]",
Cc1ccc(/C=C/c2nc3ccccc3c(=O)[nH]2)cc1,"inconclusive: 15.8 µM [inhibitor, partial curve, poor fit]",

# Arranged by SMILES length (ascending): part of the list above
SMILES,Potency,"activity, negative = inhibition"
Cn1c2ccccc2c2cc(C(=O)NNC(=O)CCl)sc21,"inconclusive: 15.8 µM [inhibitor, partial curve, poor fit]",
Cc1ccc(CN(Cc2ccco2)C(=O)c2ccccc2Br)o1,"inconclusive: 25.1 µM [inhibitor, partial curve, poor fit]",
O=C(Nc1ccc(Br)cc1)c1cccc(N2C(=O)C3CCCCC3C2=O)c1 (stereo not drawn),inactive,
